The assay deals with FLAG-KDM4B deletion mutant lacking the JmjN domain (UniProt O94953). The experiment in a line: co-IP; transfected cells (293T named in the methods); NP-40 lysis buffer (10 mM Tris pH 7.9, 150 mM NaCl, 1 mM EDTA, 5% glycerol); immunoprecipitation with anti-FLAG antibody, immunoblot with anti-HA antibody.

Protein sequences, listed by entry. Tags and fused reporters are not part of them. Lines headed by an entry give the natural chain unless they say otherwise; changes in a name come on top.
UniProt O94953: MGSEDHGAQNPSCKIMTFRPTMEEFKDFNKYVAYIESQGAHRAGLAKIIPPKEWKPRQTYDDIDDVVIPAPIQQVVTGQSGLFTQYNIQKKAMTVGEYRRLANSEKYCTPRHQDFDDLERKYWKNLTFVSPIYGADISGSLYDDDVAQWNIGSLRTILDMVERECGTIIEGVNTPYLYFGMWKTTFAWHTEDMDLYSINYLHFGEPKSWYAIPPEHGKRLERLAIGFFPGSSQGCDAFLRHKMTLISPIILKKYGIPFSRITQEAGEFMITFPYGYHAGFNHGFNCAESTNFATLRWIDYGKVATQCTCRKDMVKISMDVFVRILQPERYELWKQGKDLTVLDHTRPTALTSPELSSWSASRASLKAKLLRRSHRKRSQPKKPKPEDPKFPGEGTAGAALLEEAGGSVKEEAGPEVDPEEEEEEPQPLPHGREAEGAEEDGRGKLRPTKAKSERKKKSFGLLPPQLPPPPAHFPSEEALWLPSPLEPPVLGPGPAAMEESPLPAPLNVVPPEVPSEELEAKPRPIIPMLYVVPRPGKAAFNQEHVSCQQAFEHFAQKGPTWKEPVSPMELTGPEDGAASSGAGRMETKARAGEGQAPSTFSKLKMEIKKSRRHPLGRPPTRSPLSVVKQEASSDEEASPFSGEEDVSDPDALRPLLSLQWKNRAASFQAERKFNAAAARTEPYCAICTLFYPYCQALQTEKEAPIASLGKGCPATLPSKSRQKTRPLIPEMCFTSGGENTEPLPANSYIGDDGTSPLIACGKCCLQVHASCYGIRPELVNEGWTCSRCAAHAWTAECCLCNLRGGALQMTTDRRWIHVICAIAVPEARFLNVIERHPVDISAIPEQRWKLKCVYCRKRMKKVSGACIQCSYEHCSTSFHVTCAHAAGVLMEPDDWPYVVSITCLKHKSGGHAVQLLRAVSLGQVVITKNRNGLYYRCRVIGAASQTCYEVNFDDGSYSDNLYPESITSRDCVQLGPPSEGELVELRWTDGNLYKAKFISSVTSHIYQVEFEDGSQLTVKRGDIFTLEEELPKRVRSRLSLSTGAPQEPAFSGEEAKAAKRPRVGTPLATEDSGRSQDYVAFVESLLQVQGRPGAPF

The text below walks through data of article PMC8144413.

These are yes or no findings as the source states them, for the method shown. Binding seen in cells or lysates may run through a third protein. Binding calls can cover weak binding; strength is not graded here. Sequences can lack the tags named with a protein.

B1: HA-CCAR1 (protein, UniProt Q8CH18 1-1146)
chain: MAQFGGQKNPPWATQFTATAVSQPAALGVQQPSLLGASPTIYTQQTALAAAGLTTQTPANYQLTQTAALQQQAAAVLQQQYSQPQQALYSVQQQLQQPQQTILTQPAVALPTSLSLSTPQPAAQITVSYPTPRSSQQQTQPQKQRVFTGVVTKLHDTFGFVDEDVFFQLGAVKGKTPQVGDRVLVEATYNPNMPFKWNAQRIQTLPNQNQSQTQPLLKTPTAVIQPIVPQTTFGVQAQPQPQSLLQAQISAASITPLLQTQPQPLLQQPQQKAGLLQPPVRIVSQPQPARRLDPPSRFSGRNDRGDQVPNRKDDRSRERDRERRRSRERSPQRKRSRERSPRRERERSPRRVRRVVPRYTVQFSKFSLDCPSCDMMELRRRYQNLYIPSDFFDAQFTWVDAFPLSRPFQLGNYCNFYVMHREVESLEKNMAVLDPPDADHLYSAKVMLMASPSMEDLYHKSCALAEDPQDLRDGFQHPARLVKFLVGMKGKDEAMAIGGHWSPSLDGPNPEKDPSVLIKTAIRCCKALTGIDLSVCTQWYRFAEIRYHRPEETHKGRTVPAHVETVVLFFPDVWHCLPTRSEWETLSRGYKQQLVEKLQGERKKADGEQDEEEKDDGEVKEIATPTHWSKLDPKAMKVNDLRKELESRALSSKGLKSQLIARLTKQLKIEEQKEEQKELEKSEKEEEDEDDKKSEDDKEEEERKRQEEVERQRQERRYILPDEPAIIVHPNWAAKSGKFDCSIMSLSVLLDYRLEDNKEHSFEVSLFAELFNEMLQRDFGVRIYKSLLSLPEKEDKKDKEKKSKKEERKDKKEEREDDIDEPKPKRRKSGDDKDKKEDRDERKKEEKRKDDSKDDDETEEDNNQDEYDPMEAEEAEDEDDDREEEEVKRDDKRDVSRYCKDRPAKDKEKEKPQMVTVNRDLLMAFVYFDQSHCGYLLEKDLEEILYTLGLHLSRAQVKKLLNKVVLRESCFYRKLTDTSKDDENHEESEALQEDMLGNRLLLPTPTIKQESKDGEENVGLIVYNGAMVDVGSLLQKLEKSEKVRAEVEQKLQLLEEKTDEDGKTILNLENSNKSLSGELREVKKDLGQLQENLEVSENMNLQFENQLNKTLRNLSTVMDDIHTVLKKDNVKSEDRDEKSKENGSGV
As to B1, the binding entry is “binds”.
